Test results published in the supplement of paper PMC10849652.
Some of the results follow.

Amino acid sequences for entries named in this document (tags omitted). A change or cut given only in a name is not applied to a line headed by its entry.
UniProt Q9UPT9: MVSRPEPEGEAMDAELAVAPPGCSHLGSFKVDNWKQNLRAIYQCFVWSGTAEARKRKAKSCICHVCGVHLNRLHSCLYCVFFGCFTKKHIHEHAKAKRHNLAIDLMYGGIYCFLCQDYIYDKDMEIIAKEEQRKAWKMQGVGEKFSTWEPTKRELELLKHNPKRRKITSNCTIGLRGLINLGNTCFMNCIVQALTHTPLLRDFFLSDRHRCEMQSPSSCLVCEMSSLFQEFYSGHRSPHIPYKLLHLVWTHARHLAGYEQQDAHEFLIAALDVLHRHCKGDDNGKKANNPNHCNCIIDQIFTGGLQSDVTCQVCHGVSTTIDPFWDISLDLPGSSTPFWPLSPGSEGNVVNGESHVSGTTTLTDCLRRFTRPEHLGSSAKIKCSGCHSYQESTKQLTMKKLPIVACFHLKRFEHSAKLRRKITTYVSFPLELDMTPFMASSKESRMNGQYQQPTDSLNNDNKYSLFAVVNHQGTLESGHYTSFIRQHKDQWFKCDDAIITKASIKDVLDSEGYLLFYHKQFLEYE
UniProt Q8NB14: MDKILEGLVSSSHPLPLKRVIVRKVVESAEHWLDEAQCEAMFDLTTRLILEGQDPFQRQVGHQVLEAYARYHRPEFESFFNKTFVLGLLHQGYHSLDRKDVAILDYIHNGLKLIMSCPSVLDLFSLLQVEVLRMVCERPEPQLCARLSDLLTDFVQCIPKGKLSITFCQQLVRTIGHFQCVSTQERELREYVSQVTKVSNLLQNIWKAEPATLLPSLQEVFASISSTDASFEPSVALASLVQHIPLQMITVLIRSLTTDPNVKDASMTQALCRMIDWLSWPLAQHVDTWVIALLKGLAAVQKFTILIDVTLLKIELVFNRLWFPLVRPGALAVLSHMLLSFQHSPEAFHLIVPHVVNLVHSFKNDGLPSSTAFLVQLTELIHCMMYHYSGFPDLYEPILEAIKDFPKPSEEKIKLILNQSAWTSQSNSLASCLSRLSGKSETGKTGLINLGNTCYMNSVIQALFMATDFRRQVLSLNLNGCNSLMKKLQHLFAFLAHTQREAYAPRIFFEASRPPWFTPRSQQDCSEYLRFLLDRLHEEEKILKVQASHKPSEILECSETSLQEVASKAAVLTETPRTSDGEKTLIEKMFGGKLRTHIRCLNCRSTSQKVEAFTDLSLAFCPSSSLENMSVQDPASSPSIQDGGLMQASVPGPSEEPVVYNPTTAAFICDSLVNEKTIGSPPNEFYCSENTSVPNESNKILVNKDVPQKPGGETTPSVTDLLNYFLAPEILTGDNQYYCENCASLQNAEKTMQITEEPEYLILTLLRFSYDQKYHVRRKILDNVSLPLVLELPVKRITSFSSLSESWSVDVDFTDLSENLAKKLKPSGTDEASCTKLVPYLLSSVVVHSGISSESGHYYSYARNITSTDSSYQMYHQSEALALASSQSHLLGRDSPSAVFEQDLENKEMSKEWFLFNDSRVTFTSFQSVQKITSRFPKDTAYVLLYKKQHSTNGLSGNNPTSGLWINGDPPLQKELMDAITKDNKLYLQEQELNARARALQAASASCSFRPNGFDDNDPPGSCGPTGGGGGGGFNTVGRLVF
UniProt Q9BZM6: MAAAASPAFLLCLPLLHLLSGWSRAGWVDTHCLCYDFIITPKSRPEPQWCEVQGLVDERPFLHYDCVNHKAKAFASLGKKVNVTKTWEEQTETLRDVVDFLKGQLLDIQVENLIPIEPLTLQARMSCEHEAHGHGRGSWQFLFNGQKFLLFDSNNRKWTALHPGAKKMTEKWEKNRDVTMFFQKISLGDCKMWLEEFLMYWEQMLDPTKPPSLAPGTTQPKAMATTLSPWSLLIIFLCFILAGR
UniProt Q9BZM5, whole entry, looked up: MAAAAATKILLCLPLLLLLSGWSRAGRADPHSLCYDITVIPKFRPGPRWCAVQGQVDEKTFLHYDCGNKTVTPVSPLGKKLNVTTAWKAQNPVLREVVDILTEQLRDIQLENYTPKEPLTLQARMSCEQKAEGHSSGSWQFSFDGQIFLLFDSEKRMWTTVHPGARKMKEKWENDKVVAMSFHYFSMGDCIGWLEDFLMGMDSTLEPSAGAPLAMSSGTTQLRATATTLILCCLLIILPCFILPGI
UniProt P14927: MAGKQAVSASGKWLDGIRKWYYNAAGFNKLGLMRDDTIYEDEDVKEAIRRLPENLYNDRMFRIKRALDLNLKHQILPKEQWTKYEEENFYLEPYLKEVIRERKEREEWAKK
UniProt P18206: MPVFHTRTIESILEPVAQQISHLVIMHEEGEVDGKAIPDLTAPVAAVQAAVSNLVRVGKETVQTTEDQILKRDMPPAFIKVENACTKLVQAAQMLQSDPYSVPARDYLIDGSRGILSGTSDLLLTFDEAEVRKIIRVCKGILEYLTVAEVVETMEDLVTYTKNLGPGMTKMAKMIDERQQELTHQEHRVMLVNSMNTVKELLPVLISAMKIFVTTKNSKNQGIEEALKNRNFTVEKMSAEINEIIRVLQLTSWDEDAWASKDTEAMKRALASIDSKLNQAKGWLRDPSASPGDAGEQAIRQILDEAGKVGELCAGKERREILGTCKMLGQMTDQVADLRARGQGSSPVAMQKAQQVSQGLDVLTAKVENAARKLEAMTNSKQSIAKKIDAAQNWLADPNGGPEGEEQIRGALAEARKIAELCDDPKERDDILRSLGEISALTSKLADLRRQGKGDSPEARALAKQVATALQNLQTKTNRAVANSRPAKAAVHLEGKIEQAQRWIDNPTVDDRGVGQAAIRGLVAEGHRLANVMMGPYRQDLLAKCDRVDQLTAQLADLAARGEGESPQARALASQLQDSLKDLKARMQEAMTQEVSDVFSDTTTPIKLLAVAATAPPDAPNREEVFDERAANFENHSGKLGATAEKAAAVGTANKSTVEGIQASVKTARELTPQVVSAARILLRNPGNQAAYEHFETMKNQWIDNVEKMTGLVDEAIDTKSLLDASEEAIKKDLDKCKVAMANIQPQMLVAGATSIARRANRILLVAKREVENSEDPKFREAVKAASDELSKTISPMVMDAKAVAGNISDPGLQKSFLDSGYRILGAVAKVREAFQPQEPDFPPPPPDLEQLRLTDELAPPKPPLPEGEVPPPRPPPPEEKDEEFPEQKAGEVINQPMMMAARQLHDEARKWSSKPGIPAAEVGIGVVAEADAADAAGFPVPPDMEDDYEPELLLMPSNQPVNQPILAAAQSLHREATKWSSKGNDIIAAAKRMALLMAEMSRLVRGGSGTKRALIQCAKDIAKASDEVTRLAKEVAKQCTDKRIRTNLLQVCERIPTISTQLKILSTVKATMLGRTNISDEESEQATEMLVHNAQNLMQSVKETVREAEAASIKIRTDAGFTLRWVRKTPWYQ
UniProt Q15853: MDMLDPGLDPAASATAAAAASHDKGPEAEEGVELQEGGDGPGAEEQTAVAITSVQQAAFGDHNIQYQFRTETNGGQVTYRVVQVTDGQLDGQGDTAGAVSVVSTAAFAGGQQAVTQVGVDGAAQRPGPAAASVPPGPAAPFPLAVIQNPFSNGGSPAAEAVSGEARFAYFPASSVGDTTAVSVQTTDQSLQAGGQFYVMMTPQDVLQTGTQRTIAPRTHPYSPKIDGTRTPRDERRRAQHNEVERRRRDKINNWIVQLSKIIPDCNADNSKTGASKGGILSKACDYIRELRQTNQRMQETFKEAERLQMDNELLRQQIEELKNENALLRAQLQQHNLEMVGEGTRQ
UniProt Q969X6: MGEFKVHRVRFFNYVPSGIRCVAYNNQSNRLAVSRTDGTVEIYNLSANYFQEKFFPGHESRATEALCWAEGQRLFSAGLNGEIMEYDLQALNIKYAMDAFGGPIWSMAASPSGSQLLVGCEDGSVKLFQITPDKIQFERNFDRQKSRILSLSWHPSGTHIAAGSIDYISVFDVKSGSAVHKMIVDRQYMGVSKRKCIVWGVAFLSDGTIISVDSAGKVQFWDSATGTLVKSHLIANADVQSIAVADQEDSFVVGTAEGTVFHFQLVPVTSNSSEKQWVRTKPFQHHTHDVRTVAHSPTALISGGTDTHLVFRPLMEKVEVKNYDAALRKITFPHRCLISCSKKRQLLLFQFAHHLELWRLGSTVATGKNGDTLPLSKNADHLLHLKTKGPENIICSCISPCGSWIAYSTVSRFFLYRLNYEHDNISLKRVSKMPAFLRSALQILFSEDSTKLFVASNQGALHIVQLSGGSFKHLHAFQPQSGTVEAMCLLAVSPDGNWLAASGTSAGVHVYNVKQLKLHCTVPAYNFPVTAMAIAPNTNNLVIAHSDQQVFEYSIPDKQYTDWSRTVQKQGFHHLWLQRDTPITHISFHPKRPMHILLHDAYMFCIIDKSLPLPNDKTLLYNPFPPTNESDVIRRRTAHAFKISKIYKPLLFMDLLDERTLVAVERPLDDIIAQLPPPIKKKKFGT
UniProt Q96RU2: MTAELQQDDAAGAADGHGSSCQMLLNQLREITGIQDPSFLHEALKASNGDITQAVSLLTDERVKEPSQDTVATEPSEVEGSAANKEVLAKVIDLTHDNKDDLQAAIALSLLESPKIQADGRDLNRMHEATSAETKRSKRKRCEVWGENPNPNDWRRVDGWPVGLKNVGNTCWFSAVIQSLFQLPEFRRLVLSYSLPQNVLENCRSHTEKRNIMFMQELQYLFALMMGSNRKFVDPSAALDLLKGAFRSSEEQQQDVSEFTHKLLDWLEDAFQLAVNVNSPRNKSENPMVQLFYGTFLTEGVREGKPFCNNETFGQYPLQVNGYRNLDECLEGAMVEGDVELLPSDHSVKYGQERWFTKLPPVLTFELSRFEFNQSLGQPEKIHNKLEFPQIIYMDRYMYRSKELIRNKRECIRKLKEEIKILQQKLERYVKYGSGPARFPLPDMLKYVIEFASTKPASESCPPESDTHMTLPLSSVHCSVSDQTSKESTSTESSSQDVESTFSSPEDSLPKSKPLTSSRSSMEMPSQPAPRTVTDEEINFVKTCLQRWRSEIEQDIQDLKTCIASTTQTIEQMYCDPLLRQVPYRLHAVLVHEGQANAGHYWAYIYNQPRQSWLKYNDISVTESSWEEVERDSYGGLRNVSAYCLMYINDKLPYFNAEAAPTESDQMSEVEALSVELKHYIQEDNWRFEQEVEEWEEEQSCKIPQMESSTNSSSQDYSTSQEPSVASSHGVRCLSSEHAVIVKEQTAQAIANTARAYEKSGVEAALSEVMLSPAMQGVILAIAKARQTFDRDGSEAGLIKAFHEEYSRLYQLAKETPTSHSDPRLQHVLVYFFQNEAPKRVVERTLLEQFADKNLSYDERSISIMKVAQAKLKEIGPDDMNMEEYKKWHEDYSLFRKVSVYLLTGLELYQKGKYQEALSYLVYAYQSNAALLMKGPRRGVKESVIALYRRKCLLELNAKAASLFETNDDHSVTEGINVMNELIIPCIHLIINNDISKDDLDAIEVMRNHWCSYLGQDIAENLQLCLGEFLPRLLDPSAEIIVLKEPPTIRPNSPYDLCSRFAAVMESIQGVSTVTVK
UniProt Q9BZI7: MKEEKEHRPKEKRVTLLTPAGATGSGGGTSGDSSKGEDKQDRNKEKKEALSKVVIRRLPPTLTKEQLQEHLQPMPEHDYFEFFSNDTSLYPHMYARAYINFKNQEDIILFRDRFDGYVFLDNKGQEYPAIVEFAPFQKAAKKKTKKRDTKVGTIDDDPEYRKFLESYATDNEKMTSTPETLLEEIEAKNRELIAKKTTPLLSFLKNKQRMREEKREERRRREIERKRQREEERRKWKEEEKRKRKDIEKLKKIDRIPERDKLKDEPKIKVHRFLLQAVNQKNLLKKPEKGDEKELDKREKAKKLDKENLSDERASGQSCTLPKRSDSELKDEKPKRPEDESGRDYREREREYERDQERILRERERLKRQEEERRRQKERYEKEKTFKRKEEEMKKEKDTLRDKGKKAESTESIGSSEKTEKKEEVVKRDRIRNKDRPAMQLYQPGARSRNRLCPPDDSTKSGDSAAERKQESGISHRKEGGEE
UniProt P50552: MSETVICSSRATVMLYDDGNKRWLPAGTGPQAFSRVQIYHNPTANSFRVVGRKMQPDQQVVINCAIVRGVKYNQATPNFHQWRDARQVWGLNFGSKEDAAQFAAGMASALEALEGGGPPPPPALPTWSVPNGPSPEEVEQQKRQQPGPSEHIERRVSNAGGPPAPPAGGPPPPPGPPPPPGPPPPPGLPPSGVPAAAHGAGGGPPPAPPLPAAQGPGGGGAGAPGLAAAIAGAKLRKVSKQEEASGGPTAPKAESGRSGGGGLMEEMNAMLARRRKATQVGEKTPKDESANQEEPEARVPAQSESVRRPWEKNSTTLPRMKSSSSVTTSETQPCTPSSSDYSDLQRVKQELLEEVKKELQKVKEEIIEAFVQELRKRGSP
UniProt P13051, whole entry, looked up: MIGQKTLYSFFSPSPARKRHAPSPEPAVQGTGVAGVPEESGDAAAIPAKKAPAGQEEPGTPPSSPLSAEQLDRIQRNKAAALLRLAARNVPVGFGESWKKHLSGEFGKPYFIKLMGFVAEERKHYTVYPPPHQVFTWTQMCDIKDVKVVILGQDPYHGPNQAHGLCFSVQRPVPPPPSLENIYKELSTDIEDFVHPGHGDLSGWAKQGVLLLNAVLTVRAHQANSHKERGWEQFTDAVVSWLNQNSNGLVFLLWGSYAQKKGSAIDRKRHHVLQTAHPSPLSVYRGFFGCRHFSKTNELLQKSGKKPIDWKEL

Assays:
Experiment in all cases: log2 fold change, soluble protein after heating vs DMSO (PISA); higher = thermal stabilisation; K562 lysate, 10 uM; active = over 0.2 and 3.5 SD of the protein, either way, in both replicates (recomputed)
[1] = compound: C1=CC=C(C=C1)[C@H](COC2=CC3=C(C=C2)NC(=O)N3)NC(=O)C4=CC=CN(C4=O)CC5=CC(=C(C=C5)F)F
In short: (§1)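 Following dounce homogenisation of K562 pellets in PBS pH 7.4 with 1 mM MgCl2, crude extract at 1 mg/mL protein was incubated for 30 min with 10 μM compound. Aliquots were then heated for 3 min over 48°C-58°C and pooled, NP-40 was added to 0.5% at 4°C, and soluble protein was recovered as the supernatant at 21,000xg for 90 min. Channel-sum-equalised TMTpro 16plex LC-MS/MS quantified this protein. Each value, from duplicates, is a log-two fold change in thermal stability relative to solvent controls.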

[2] = compound: CC1=C(SC2=C1C(=N[C@H](C3=NN=C(N32)C)CC(=O)N)C4=CC=C(C=C4)Cl)C
In short: as §1

[3] = compound: CC1=C2C(=CC=C1)N=C(N(C2=O)C3=CC=CC=C3C)CN4C=NC5=C(N=CN=C54)N
In short: as §1

[4] = compound: Cc1sc2c(c1C)C(c1ccc(Cl)cc1)=N[C@@H](CC(=O)OC(C)(C)C)c1nnc(C)n1-2
In short: as §1

[5] = compound: c1ccc([C@@H]2C[C@H]2NC2CCNCC2)cc1
In short: as §1

Measured: log2 fold change

UFL1 (UniProt O94874)
inactive: [1] -0.011 | [2] 0.014 | [3] 0.009 | [4] 0.004 | [5] 0.013

USP22 (UniProt Q9UPT9)
inactive: [1] 0.039 | [2] -0.025 | [3] 0.012 | [4] 0.045 | [5] 0.055

VDAC2 (UniProt Q5JSD1)
inactive: [1] 0.078 | [2] -0.067 | [3] -0.071 | [4] -0.071 | [5] -0.065

USP32 (UniProt Q8NFA0)
inactive: [1] -0.007 | [2] 0.034 | [3] 0.073 | [4] -0.039 | [5] -0.012

VAPA isoform 2 (UniProt Q9P0L0)
inactive: [1] 0.066 | [2] -0.043 | [3] 0.029 | [4] -0.035 | [5] -0.13

UHRF1BP1 (UniProt Q6BDS2)
inactive: [1] -0.001 | [2] 0.038 | [3] -0.008 | [4] 0.032 | [5] -0.01

USP38 (UniProt Q8NB14)
inactive: [1] 0.028 | [2] 0.071 | [3] -0.1 | [4] -0.03 | [5] -0.01

ULK3 isoform 4 (UniProt Q6PHR2)
inactive: [1] -0.015 | [2] 0.043 | [3] -0.117 | [4] -0.026 | [5] 0.125

ULBP1 (UniProt Q9BZM6)
inactive: [1] 0.048 | [2] -0.033 | [3] 0.003 | [4] -0.003 | [5] -0.192

USP9X (UniProt Q93008)
inactive: [1] -0.033 | [2] 0.005 | [3] 0.014 | [4] 0.008 | [5] -0.001

USP14 (UniProt P54578)
inactive: [1] -0.007 | [2] 0.007 | [3] 0.026 | [4] 0.038 | [5] 0.044

ULBP2 (UniProt Q9BZM5)
inactive: [1] 0.025 | [2] -0.043 | [3] 0.087 | [4] -0.043 | [5] -0.089

Copied from above (two entries):
ULK3 isoform 4 (UniProt Q6PHR2)
inactive: [1] -0.015 | [2] 0.043 | [3] -0.117 | [4] -0.026 | [5] 0.125

ULBP1 (UniProt Q9BZM6)
inactive: [1] 0.048 | [2] -0.033 | [3] 0.003 | [4] -0.003 | [5] -0.192

Remaining list, next part.

UHRF1BP1L (UniProt A0JNW5)
inactive: [1] 0.019 | [2] 0.024 | [3] 0.014 | [4] 0.008 | [5] 0.024

UNC45A (UniProt Q9H3U1)
inactive: [1] -0.036 | [2] -0.011 | [3] 0.036 | [4] 0.004 | [5] 0.039

UQCRB (UniProt P14927)
inactive: [1] 0.034 | [2] -0.025 | [3] -0.042 | [4] -0.009 | [5] -0.027

VCL (UniProt P18206)
inactive: [1] 0.001 | [2] 0.006 | [3] 0 | [4] -0.032 | [5] -0.044

USF2 (UniProt Q15853)
inactive: [1] -0.027 | [2] 0.007 | [3] 0.039 | [4] 0.03 | [5] -0.04

UTP4 (UniProt Q969X6)
inactive: [1] 0.05 | [2] 0 | [3] -0.033 | [4] 0.026 | [5] 0.067

UGGT2 (UniProt Q9NYU1)
inactive: [1] -0.042 | [2] 0.058 | [3] -0.001 | [4] -0.025 | [5] 0.047

UGP2 (UniProt Q16851)
inactive: [1] 0.003 | [2] 0.014 | [3] -0.009 | [4] -0.014 | [5] 0.011

USP28 isoform 2 (UniProt Q96RU2)
inactive: [1] -0.032 | [2] 0.003 | [3] 0.019 | [4] 0.028 | [5] -0.009

UPF3B (UniProt Q9BZI7)
inactive: [1] 0.031 | [2] -0.008 | [3] -0.043 | [4] 0.022 | [5] -0.097

VASP (UniProt P50552)
inactive: [1] -0.005 | [2] 0.006 | [3] 0.008 | [4] -0.052 | [5] 0.017

UNG (UniProt P13051)
inactive: [1] -0.036 | [2] -0.026 | [4] 0.144 | [5] -0.036

VBP1 (UniProt P61758)
inactive: [1] 0.027 | [2] 0.011 | [3] 0 | [4] -0.018 | [5] 0.016
